Laboratory results: doi:10.1101/440297
These are yes or no findings as the source states them, for the method shown. In cells and extracts the contact can be indirect. Some binding calls cover weakened binding; strength is not graded here.

Chains of the proteins cited; added tags and fusions are not shown.
UniProt P35637: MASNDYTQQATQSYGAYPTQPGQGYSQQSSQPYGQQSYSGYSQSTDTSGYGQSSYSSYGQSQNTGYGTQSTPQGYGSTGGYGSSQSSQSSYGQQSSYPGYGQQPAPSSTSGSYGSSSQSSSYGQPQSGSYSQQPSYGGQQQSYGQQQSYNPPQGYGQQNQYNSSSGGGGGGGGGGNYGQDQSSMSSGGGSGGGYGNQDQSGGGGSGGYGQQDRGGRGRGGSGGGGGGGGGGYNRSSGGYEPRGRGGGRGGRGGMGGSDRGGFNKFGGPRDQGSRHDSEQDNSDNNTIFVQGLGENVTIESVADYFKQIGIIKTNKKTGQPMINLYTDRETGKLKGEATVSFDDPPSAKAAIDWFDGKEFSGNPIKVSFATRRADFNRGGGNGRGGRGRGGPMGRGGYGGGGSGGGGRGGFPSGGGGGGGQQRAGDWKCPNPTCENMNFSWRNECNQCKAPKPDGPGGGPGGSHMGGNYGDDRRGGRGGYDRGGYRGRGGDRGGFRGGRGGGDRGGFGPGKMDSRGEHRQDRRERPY
UniProt P08621: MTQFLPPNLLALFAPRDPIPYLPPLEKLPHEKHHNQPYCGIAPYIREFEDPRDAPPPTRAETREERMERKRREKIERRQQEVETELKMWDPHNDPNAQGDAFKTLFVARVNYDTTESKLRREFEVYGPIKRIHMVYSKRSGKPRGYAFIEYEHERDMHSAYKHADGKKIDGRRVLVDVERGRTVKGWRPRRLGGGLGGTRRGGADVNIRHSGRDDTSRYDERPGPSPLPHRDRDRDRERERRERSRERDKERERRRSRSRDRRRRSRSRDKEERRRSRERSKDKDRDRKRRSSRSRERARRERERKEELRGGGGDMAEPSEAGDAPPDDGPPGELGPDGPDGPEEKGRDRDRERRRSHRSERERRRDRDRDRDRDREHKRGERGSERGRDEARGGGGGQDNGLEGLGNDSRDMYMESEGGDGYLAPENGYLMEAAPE
UniProt P09012: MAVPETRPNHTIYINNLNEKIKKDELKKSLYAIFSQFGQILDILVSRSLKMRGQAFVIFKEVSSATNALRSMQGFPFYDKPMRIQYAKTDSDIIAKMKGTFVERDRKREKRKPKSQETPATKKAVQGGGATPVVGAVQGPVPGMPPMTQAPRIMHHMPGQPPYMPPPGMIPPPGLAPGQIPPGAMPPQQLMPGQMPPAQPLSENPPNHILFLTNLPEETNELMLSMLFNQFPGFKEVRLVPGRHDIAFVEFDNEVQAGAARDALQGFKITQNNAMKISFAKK

Molecular target: Fus (human (endogenous in HeLa)) (UniProt P35637)
Assay: co-IP

binding	Molecule
binds	U1-70 (from UniProt P08621 1-437)
binds	U1-A (from UniProt P09012 1-282)
binds	HNRNPM (protein, UniProt P52272 1-730) MAAGVEAAAEVAATEIKMEEESGAPGVPSGNGAPGPKGEGERPAQNEKRKEKNIKRGGNRFEPYANPTKRYRAFITNIPFDVKWQSLKDLVKEKVGEVTYVELLMDAEGKSRGCAVVEFKMEESMKKAAEVLNKHSLSGRPLKVKEDPDGEHARRAMQKVMATTGGMGMGPGGPGMITIPPSILNNPNIPNEIIHALQAGRLGSTVFVANLDYKVGWKKLKEVFSMAGVVVRADILEDKDGKSRGIGTVTFEQSIEAVQAISMFNGQLLFDRPMHVKMDERALPKGDFFPPERPQQLPHGLGGIGMGLGPGGQPIDANHLNKGIGMGNIGPAGMGMEGIGFGINKMGGMEGPFGGGMENMGRFGSGMNMGRINEILSNALKRGEIIAKQGGGGGGGSVPGIERMGPGIDRLGGAGMERMGAGLGHGMDRVGSEIERMGLVMDRMGSVERMGSGIERMGPLGLDHMASSIERMGQTMERIGSGVERMGAGMGFGLERMAAPIDRVGQTIERMGSGVERMGPAIERMGLSMERMVPAGMGAGLERMGPVMDRMATGLERMGANNLERMGLERMGANSLERMGLERMGANSLERMGPAMGPALGAGIERMGLAMGGGGGASFDRAIEMERGNFGGSFAGSFGGAGGHAPGVARKACQIFVRNLPFDFTWKMLKDKFNECGHVLYADIKMENGKSKGCGVVKFESPEVAERACRMMNGMKLSGREIDVRIDRNA
